The source of these data is article PMC10499981.

The chains behind the UniProt entries cited, without tags or fusion partners.
UniProt P05412: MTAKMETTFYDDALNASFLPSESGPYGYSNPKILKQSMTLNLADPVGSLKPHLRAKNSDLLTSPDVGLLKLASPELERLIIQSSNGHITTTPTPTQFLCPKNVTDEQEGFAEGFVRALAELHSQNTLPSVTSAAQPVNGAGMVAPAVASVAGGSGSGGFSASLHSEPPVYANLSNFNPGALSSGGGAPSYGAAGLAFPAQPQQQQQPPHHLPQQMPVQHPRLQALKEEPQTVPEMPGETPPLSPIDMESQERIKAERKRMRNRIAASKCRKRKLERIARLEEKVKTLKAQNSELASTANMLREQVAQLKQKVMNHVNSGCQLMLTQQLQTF

Experiment [1] deals with c-Fos (endogenous) (human (endogenous in 5637)) (UniProt P01100). Briefly: co-IP; endogenous proteins in 5637 cells; lysate precleared with protein A/G beads, anti-RBPMS, anti-c-Fos or anti-c-Jun antibody overnight at 4 °C, protein A/G beads 2 h; Western blot.
Experiment [2] concerns the target c-Jun (endogenous) (human (endogenous in 5637)) (UniProt P05412). The description is as above.
The target of experiment [3] is c-Fos (exogenously expressed) (UniProt P01100). Briefly: co-IP; exogenous expressed proteins in T24 cells; lysis 48 h after transfection in 50 mM Tris-HCl pH 7.4, 150 mM NaCl, 0.1-0.5% NP-40; anti-FLAG/MYC antibody-conjugated agarose beads overnight; Western blot.
The target of experiment [4] is c-Jun (in T24 cells, precipitated with an antibody against c-Jun) (UniProt P05412). Put plainly: co-IP; T24 cells; precipitation with an antibody against c-Jun, blot for RBPMS.

No constants are given. Whether binding was seen depends on the method and setting. Binding seen in cells or lysates may run through a third protein. Some binding calls cover weakened binding; strength is not graded here.

Consider “RBPMS (endogenous) (from UniProt Q93062 1-196)”, for which the binding result is listed as “binds” in experiment [1] and “no binding” in experiment [2].

As to “RBPMS (exogenously expressed, tagged) (from UniProt Q93062 1-196)”, the binding result in experiment [3] is “binds”; in experiment [4], “no binding”.
